In publication PMC5930436, “Overexpressed HDAC8 in cervical cancer cells shows functional redundancy of tubulin deacetylation with HDAC6” (Cell Communication and Signaling : CCS, 2018):
Results are given in words; binding and its absence hold for the method and conditions named. In cells and extracts the contact can be indirect. Some entries that bind do so weakly or less than the wild type. One block for each molecule: values may come before it.

Chains of the proteins cited; added tags and fusions are not shown.
UniProt Q9BQE3: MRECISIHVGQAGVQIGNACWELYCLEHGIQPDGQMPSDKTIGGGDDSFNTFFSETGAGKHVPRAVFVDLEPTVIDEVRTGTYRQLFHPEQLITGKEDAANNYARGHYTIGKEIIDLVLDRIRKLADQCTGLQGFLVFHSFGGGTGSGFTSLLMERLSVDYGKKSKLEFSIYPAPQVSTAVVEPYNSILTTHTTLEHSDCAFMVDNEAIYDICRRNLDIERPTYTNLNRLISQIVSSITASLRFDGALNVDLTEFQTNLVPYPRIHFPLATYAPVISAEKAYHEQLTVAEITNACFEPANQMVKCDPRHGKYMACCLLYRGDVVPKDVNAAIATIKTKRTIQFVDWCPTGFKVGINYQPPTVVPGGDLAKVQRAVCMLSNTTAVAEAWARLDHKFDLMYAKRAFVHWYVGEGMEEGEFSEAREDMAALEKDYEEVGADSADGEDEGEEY

Columns and labels:
[1] = molecular target: T1, HDAC8 (human (endogenous in HeLa and HEK 293 T)) (UniProt Q9BY41); experiment: co-IP; endogenous proteins of HeLa and HEK 293 T lysates; IP with anti-HDAC8 antibody, reverse IP with the partner's antibody (tubulin, HDAC6); Protein A beads; immunoblot
T1 sequence: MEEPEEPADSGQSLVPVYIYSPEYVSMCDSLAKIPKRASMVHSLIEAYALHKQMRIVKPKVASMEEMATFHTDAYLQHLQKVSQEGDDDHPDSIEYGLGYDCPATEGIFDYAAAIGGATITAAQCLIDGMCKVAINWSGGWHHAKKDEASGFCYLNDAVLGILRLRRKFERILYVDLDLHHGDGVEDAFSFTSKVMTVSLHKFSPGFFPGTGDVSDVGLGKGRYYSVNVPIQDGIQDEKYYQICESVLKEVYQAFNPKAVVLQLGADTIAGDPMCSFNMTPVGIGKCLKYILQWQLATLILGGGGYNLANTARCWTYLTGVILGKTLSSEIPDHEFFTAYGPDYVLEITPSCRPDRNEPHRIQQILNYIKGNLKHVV

[2] = molecular target: Alpha tubulin (TUBA1-C, Human Alpha Tubulin chain 1 C isoform) (human (endogenous in HeLa and HEK 293 T)) (UniProt Q9BQE3); experiment: as above

binding [1]: binds
Molecule: Acetylated alpha tubulin (from UniProt Q9BQE3 1-449)

binding [1]: binds
Molecule: Alpha tubulin (TUBA1-C, Human Alpha Tubulin chain 1 C isoform) (from UniProt Q9BQE3 1-449)

binding [2]: binds
B1: HDAC8 (enzyme, UniProt Q9BY41 1-377)
chain: T1 sequence
